In this assay the target is T1, ITGB7 (human (endogenous in MHCC-LM3 and Bel-7402)) (UniProt P26010).
T1 sequence: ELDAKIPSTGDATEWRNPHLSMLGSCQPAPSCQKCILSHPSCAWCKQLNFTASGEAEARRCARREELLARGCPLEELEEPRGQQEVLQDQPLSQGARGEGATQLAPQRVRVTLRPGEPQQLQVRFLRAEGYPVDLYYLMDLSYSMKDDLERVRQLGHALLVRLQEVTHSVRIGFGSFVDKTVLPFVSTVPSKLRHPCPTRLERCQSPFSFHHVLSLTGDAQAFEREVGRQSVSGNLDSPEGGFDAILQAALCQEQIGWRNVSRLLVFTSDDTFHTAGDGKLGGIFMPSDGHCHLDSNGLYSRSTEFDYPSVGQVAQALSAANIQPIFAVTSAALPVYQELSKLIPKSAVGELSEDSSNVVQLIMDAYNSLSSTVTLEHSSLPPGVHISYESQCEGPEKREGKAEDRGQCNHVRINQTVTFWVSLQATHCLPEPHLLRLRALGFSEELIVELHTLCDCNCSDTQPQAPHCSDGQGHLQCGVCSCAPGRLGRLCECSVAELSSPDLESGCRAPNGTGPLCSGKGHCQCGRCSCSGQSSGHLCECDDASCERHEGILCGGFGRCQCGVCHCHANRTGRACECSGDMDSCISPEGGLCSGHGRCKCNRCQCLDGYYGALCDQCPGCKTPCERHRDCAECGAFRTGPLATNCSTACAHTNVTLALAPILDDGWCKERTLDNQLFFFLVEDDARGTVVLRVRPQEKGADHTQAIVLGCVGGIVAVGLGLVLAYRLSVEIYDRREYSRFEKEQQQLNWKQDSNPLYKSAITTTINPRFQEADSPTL
The assay can be described thus: co-IP; endogenous proteins in MHCC-LM3 and Bel-7402 lysates (NP-40 lysis buffer, PMSF); pre-cleared with Protein A+G Agarose; 2 micrograms primary antibody overnight at 4°C; Protein A+G Agarose 3 hours at 4°C; washed five times with PBS; Western blot. (In general: In western blotting, separated proteins are transferred to a membrane and probed.)

These are yes or no findings as the source states them, for the method shown. Binding seen in cells or lysates may run through a third protein. A result given as binding can be weak or reduced; the word gives no strength.

As to VEGF (human (endogenous in MHCC-LM3)), the binding entry is “binds”.

For the origin of these results see PMC7052939.
